Test results from PMC6555300.
These are yes or no findings as the source states them, for the method shown. Binding can be weak; no strength is given. Tags and fused reporters may be left off the sequences shown.

Target: T1, SiRe_0171 (N-His) (S. islandicus) (UniProt F0NBB9)
T1 sequence: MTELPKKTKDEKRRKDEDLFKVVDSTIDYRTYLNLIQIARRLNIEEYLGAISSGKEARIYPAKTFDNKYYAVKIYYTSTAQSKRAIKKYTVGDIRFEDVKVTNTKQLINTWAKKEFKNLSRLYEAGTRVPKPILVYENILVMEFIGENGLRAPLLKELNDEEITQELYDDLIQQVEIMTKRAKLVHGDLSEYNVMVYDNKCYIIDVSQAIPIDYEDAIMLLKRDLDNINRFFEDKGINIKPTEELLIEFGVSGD
Assay: pull-down; Hjc (no His-tag) and SiRe_0171 (N-His) mixed and incubated at 65 °C for 30 min, then Ni-NTA beads in buffer A (50 mM Tris-HCl pH 8.0, 200 mM NaCl, 5% glycerol) at RT for 10 min; washed four times with 40 mM imidazole, eluted with 250 mM imidazole; SDS-PAGE and Western blot; both purified

binding: binds weakly
Substance: Holliday junction resolvase Hjc (S. islandicus) (enzyme)
